## Primary screen of a compound library

The chains behind the UniProt entries cited, without tags or fusion partners.
UniProt P9WFT3, whole entry: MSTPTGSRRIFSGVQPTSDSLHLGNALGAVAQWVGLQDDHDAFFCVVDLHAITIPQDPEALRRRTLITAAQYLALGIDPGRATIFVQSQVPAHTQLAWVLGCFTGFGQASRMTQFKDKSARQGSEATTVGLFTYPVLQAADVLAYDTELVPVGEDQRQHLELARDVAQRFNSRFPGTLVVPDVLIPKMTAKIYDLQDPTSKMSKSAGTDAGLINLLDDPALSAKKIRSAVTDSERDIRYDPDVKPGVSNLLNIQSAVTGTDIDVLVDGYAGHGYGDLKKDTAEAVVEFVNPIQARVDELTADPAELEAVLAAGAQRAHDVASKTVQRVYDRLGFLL

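Enzyme assay of tryptophanyl-tRNA synthetase; the read-out is not stated. Target: Tryptophan-tRNA ligase, Mycobacterium tuberculosis (UniProt P9WFT3). Tested at 10 µM. Direction is not recorded; retested compounds ran higher, which suggests that high means inhibition. About 65,000 compounds were tested under these conditions; 0.098% (about 64) showed 50% or more at least once.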

Values are the deposited “Percent Effect”, in %.
The record does not define 0% and 100%; most values in the screen are far below 50% and negative numbers occur (in some assays of this library far below -100).
Compounds were drawn at random from those tested, without regard to their results.

SMILES,percent effect
CC(=O)NCC(=O)N1CCN(Cc2cccnc2)c2ncccc2C1,-0.3791%
CCCc1n[nH]c(=O)n1[C@@H](CC)c1ccccc1,7.443%
COc1ccc(Cl)cc1CS(=O)(=O)CC(=O)NC(C)CCC(C)C (stereo not drawn),3.01%
COc1ccc(NC(=O)C2CCCO2)cc1OCc1cccnc1 (stereo not drawn),-1.713%
Cc1cc(C)n(CC2CCCCN2C(=O)c2ccc3c(c2)COC3)n1 (stereo not drawn),1.609%
CC1CN(Cc2ccccn2)CCN1c1ccc2nncn2n1 (stereo not drawn),5.355%
Cc1cnn(CC(C)NCc2nc(-c3cccnc3)no2)c1 (stereo not drawn),-5.687%
O=C(NCc1cccs1)[C@]12COC[C@H]1CN(c1ncccn1)C2,-3.246%
Cc1ccc(N2CCCC(NC(=O)Cc3csc(C)n3)C2=O)cc1 (stereo not drawn),7.043%
Cc1ccc(C#N)c(N2CCC3(CCC(=O)N(CC(N)=O)C3)CC2)n1,-2.677%
CN(C)C(=O)Cn1cc(C(=O)NCCc2ccc(Cl)cc2Cl)nn1,-3.948%
CS(=O)(=O)NCCN1CCCC1c1ccc(Cl)cc1 (stereo not drawn),-5.272%
CCn1cnnc1C1CCN(C(=O)CCCOc2ccccc2)CC1,-2.473%
COc1ccc2c(c1)OCC(Cc1ccc(CN)cn1)C2 (stereo not drawn),7.295%
Cc1csc(CNC(=O)Nc2ccc3c(c2)OCO3)n1,-5.502%
c1ncn(CC2CCCN(Cc3nc(C4CC4)no3)C2)n1 (stereo not drawn),-2.911%
CC(CCN1CCCn2nc(CNS(C)(=O)=O)cc2C1)c1ccccc1 (stereo not drawn),6.075%
CC(C)(CN1CCC2(CCOCC2)CC1)N1CCOCC1,8.311%
CCc1ccc(CN2CCC(CNC(=O)c3ccc(C)nc3)C2)nc1 (stereo not drawn),-3.986%
CCCNC(=O)CNc1cc(C#N)ccc1OCC,-4.327%
O=C(c1cscn1)N1CCC2(CCN(Cc3nccs3)CC2)C1,3.867%
CN(C)c1ncc(-c2ccncc2)c(CCNC(=O)C2CC2)n1,-4.036%
COCC1CC2(CCN(Cc3nccn3C)CC2)CN1c1ncccn1 (stereo not drawn),-0.8137%
COCCc1noc(CN(C)C2CCCN(c3cccnn3)C2)n1 (stereo not drawn),67.49%
Cc1cccc(C2CCCN(S(=O)(=O)c3cccnc3)C2)n1 (stereo not drawn),-3.906%
Cc1cnn(CC2CCCN2Cc2nnc(C3CC3)o2)c1 (stereo not drawn),9.644%
C[C@@H]1CN(Cc2ccccc2)CCN1C(=O)NCc1nccs1,-4.727%
O=C([C@H]1C[C@H]2OCC[C@H]2N(Cc2ccc(F)cc2)C1)N1CCCCO1,3.127%
Cc1ccc(N2CC[C@@H]3O[C@@H](COCc4cccnc4)CC[C@@H]32)nn1,-2.705%
O=C1CN(C(=O)c2cc3ccc(Br)cc3[nH]2)CCN1,1.782%
O=C(c1ccco1)N1CCCC(c2cc(C(F)F)n3ncnc3n2)C1 (stereo not drawn),-3.261%
COc1ccccc1OCCc1nnc(NC(=O)C2CC23CCC3)s1 (stereo not drawn),72.65%
COC(=O)C(NC(=O)c1cc(F)cc(F)c1)c1cccnc1 (stereo not drawn),1.67%
CC(=O)N1CCCN(Cc2csc(C)n2)c2ccccc21,3.01%
Cn1ccnc1CN1CCN(CCOc2cccc(C#N)c2)CC1,-3.955%
Cc1cc(CNC(=O)CCc2c(C)nc3cc(O)nn3c2C)no1,0.8763%
O=C(c1ccccc1)N1CCOC2(CCN(Cc3cccs3)CC2)C1,14.1%
CCCSCC(=O)NCc1cccc(CN(C)CC)c1,4.239%
CCC(c1ccccc1)N1CCN(CCO)CC1 (stereo not drawn),-0.5025%
CC(C)N1CCc2[nH]nc(C(=O)N3CCN(C)CC3)c2C1,5.093%
Cc1cnc(C)c(N2CCN(CC3CCCO3)CC2)n1 (stereo not drawn),-4.341%
COc1ccc(CN2CC[C@@H](O)[C@@H]2Cc2ccccc2)cc1,10.25%
COCCN1CCCC2(CCN(c3cc(C)c(C#N)c(C)n3)C2)C1=O (stereo not drawn),-1.53%
COc1ccc(CC(=O)N2CCC3(CC2)CCN(CC(C)C)C3=O)cc1,1.308%
O=C([C@H]1CCS(=O)(=O)[C@@H]2CN(Cc3ccc(F)cc3)C[C@H]12)N1CCCC1,-0.3666%
CNC(=O)[C@@]12CCO[C@@H]1CCN(S(=O)(=O)c1cccnc1)C2,0.6103%
CCc1ccc(CC)c(NCC(=O)N2CCCC(NC(C)=O)C2)c1 (stereo not drawn),-8.323%
COc1ccccc1OC1CCN(c2nccc(N)n2)CC1,3.507%
CCn1c(C)nnc1CN(C)C1CCN(Cc2c(C)noc2C)C1 (stereo not drawn),7.828%
O=C(c1ccco1)N1CCc2onc(Cn3cccn3)c2C1,-1.221%
CNC(=O)NCC(CO)Cc1cccc(OC(F)(F)F)c1 (stereo not drawn),-0.06473%
O=C1CCN(CCCS(=O)(=O)c2ccc(Cl)cc2)CCN1,0.5485%
CSc1c(CC(=O)O)n(C)c2ccccc12,1.386%
c1cnn(CCN2CCOC(Cn3cncn3)C2)c1 (stereo not drawn),-2.282%
CC(C)Cc1nc(CN2CCCC2Cn2cncn2)no1 (stereo not drawn),-2.825%
CC(=O)N1CCC2(CCN(CC(C)C)C2)C1 (stereo not drawn),-0.7276%
Cn1c(CN2CCCCCC2)cc(=O)c(O)c1CN1CCCC1,2.593%
Cc1nnc2n1CCN(CCS(=O)(=O)c1ccccc1)C2,1.519%
O=C(O)c1ccnc(-c2ccnc(NCCc3nc4c(s3)CCC4)n2)c1,-4.527%
Cc1cnccc1N1CCCN(C(=O)CCCn2ccnc2C)CC1,0.1347%
O=C(CN1CCOC(c2ccc(Cl)s2)C1)NCc1ccco1 (stereo not drawn),0.07097%
CN(C)C(=O)C1CSCN1C(=O)CCc1ccco1 (stereo not drawn),-2.667%
c1ccc(CN2CC[C@@H]3[C@@H](CO[C@@H]3CNc3ncccn3)C2)nc1,-1.684%

3 of the entries, repeated:

- CC(CCN1CCCn2nc(CNS(C)(=O)=O)cc2C1)c1ccccc1 (stereo not drawn) | 6.075%
- COCC1CC2(CCN(Cc3nccn3C)CC2)CN1c1ncccn1 (stereo not drawn) | -0.8137%
- CC(=O)NCC(=O)N1CCN(Cc2cccnc2)c2ncccc2C1 | -0.3791%

Source: ChEMBL document CHEMBL3988442, “University of Dundee, Small-Polar-MMV Screening Library” (2021).